Results are given in words; binding and its absence hold for the method and conditions named. In cells and extracts the contact can be indirect. Here binding means that the protein was enriched with, or labelled near, the bait; the list need not be complete.
Biological target: Focal adhesion kinase 1 (human (endogenous in HCT-116)) (UniProt Q05397)
Test: affinity purification with mass spectrometry; anti-FAK polyclonal antibody and Protein A/G agarose on 1.5 mg HCT-116 total cell lysate, cells untreated (regular IP) or stimulated with 10 ng/ml EGF for 30 min; rabbit IgG as control; 1D SDS-PAGE, in-gel trypsin digestion, nano-LC-MS/MS; the proteins of Table 2 were found only with EGF …

The chains behind the UniProt entries cited, without tags or fusion partners.
UniProt Q05397: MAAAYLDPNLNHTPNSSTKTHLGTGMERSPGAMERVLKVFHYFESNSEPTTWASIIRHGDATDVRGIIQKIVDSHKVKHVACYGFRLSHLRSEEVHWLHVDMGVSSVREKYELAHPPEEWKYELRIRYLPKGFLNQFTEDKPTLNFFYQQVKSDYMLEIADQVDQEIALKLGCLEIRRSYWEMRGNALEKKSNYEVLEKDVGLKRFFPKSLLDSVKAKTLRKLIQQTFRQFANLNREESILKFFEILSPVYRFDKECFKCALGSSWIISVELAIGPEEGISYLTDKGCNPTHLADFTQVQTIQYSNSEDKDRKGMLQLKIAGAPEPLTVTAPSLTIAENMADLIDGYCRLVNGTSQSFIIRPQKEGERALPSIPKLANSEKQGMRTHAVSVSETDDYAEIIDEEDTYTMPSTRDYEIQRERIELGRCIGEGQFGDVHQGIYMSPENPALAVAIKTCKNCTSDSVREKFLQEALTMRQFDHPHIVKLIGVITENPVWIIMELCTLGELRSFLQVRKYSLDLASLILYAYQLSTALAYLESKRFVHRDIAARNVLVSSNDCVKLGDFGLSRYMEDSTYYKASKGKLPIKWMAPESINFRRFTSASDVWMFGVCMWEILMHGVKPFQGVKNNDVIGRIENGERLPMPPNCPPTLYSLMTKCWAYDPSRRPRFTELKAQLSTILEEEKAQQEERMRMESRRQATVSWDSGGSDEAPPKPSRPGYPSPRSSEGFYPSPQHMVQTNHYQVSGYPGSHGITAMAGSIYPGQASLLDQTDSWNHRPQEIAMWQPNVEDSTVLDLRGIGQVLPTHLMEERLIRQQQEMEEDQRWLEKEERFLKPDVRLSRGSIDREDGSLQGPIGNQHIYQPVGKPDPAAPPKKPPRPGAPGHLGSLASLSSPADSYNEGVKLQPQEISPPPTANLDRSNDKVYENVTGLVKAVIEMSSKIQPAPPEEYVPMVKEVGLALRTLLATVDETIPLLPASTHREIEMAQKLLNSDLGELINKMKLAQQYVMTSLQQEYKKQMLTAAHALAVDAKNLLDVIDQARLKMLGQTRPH

| binding | Binder |
| --- | --- |
| binds | Unconventional myosin-Id (protein, UniProt O94832 1-1006) MAEQESLEFGKADFVLMDTVSMPEFMANLRLRFEKGRIYTFIGEVVVSVNPYKLLNIYGRDTIEQYKGRELYERPPHLFAIADAAYKAMKRRSKDTCIVISGESGAGKTEASKYIMQYIAAITNPSQRAEVERVKNMLLKSNCVLEAFGNAKTNRNDNSSRFGKYMDINFDFKGDPIGGHINNYLLEKSRVIVQQPGERSFHSFYQLLQGGSEQMLRSLHLQKSLSSYNYIHVGAQLKSSINDAAEFRVVADAMKVIGFKPEEIQTVYKILAAILHLGNLKFVVDGDTPLIENGKVVSIIAELLSTKTDMVEKALLYRTVATGRDIIDKQHTEQEASYGRDAFAKAIYERLFCWIVTRINDIIEVKNYDTTIHGKNTVIGVLDIYGFEIFDNNSFEQFCINYCNEKLQQLFIQLVLKQEQEEYQREGIPWKHIDYFNNQIIVDLVEQQHKGIIAILDDACMNVGKVTDEMFLEALNSKLGKHAHFSSRKLCASDKILEFDRDFRIRHYAGDVVYSVIGFIDKNKDTLFQDFKRLMYNSSNPVLKNMWPEGKLSITEVTKRPLTAATLFKNSMIALVDNLASKEPYYVRCIKPNDKKSPQIFDDERCRHQVEYLGLLENVRVRRAGFAFRQTYEKFLHRYKMISEFTWPNHDLPSDKEAVKKLIERCGFQDDVAYGKTKIFIRTPRTLFTLEELRAQMLIRIVLFLQKVWRGTLARMRYKRTKAALTIIRYYRRYKVKSYIHEVARRFHGVKTMRDYGKHVKWPSPPKVLRRFEEALQTIFNRWRASQLIKSIPASDLPQVRAKVAAVEMLKGQRADLGLQRAWEGNYLASKPDTPQTSGTFVPVANELKRKDKYMNVLFSCHVRKVNRFSKVEDRAIFVTDRHLYKMDPTKQYKVMKTIPLYNLTGLSVSNGKDQLVVFHTKDNKDLIVCLFSKQPTHESRIGELVGVLVNHFKSEKRHLQVNVTNPVQCSLHGKKCTVSVETRLNQPQPDFTKNRSGFILSVPGN |
| binds | Plastin-3 (protein, UniProt P13797 1-630) MDEMATTQISKDELDELKEAFAKVDLNSNGFICDYELHELFKEANMPLPGYKVREIIQKLMLDGDRNKDGKISFDEFVYIFQEVKSSDIAKTFRKAINRKEGICALGGTSELSSEGTQHSYSEEEKYAFVNWINKALENDPDCRHVIPMNPNTDDLFKAVGDGIVLCKMINLSVPDTIDERAINKKKLTPFIIQENLNLALNSASAIGCHVVNIGAEDLRAGKPHLVLGLLWQIIKIGLFADIELSRNEALAALLRDGETLEELMKLSPEELLLRWANFHLENSGWQKINNFSADIKDSKAYFHLLNQIAPKGQKEGEPRIDINMSGFNETDDLKRAESMLQQADKLGCRQFVTPADVVSGNPKLNLAFVANLFNKYPALTKPENQDIDWTLLEGETREERTFRNWMNSLGVNPHVNHLYADLQDALVILQLYERIKVPVDWSKVNKPPYPKLGANMKKLENCNYAVELGKHPAKFSLVGIGGQDLNDGNQTLTLALVWQLMRRYTLNVLEDLGDGQKANDDIIVNWVNRTLSEAGKSTSIQSFKDKTISSSLAVVDLIDAIQPGCINYDLVKSGNLTEDDKHNNAKYAVSMARRIGARVYALPEDLVEVKPKMVMTVFACLMGRGMKRV |
| binds | espin (protein, UniProt B1AK53-1 1-854) MALEQALQAARQGELDVLRSLHAAGLLGPSLRDPLDALPVHHAARAGKLHCLRFLVEEAALPAAARARNGATPAHDASATGHLACLQWLLSQGGCRVQDKDNSGATVLHLAARFGHPEVVNWLLHHGGGDPTAATDMGALPIHYAAAKGDFPSLRLLVEHYPEGVNAQTKNGATPLYLACQEGHLEVTQYLVQECGADPHARAHDGMTPLHAAAQMGHSPVIVWLVSCTDVSLSEQDKDGATAMHFAASRGHTKVLSWLLLHGGEISADLWGGTPLHDAAENGELECCQILVVNGAELDVRDRDGYTAADLSDFNGHSHCTRYLRTVENLSVEHRVLSRDPSAELEAKQPDSGMSSPNTTVSVQPLNFDLSSPTSTLSNYDSCSSSHSSIKGQHPPCGLSSARAADIQSYMDMLNPELGLPRGTIGKPTPPPPPPSFPPPPPPPGTQLPPPPPGYPAPKPPVGPQAADIYMQTKNKLRHVETEALKKELSSCDGHDGLRRQDSSRKPRAFSKQPSTGDYYRQLGRCPGETLAARPGMAHSEEVRARQPARAGCPRLGPAARGSLEGPSAPPQAALLPGNHVPNGCAADPKASRELPPPPPPPPPPLPEAASSPPPAPPLPLESAGPGCGQRRSSSSTGSTKSFNMMSPTGDNSELLAEIKAGKSLKPTPQSKGLTTVFSGIGQPAFQPDSPLPSVSPALSPVRSPTPPAAGFQPLLNGSLVPVPPTTPAPGVQLDVEALIPTHDEQGRPIPEWKRQVMVRKMQLKMQEEEEQRRKEEEEEARLASMPAWRRDLLRKKLEEEREQKRKEEERQKQEELRREKEQSEKLRTLGYDESKLAPWQRQVILKKGDIAKY |
| binds | cingulin (protein, UniProt Q9P2M7 1-1203) MEQAPNMAEPRGPVDHGVQIRFITEPVSGAEMGTLRRGGRRPAKDARASTYGVAVRVQGIAGQPFVVLNSGEKGGDSFGVQIKGANDQGASGALSSDLELPENPYSQVKGFPAPSQSSTSDEEPGAYWNGKLLRSHSQASLAGPGPVDPSNRSNSMLELAPKVASPGSTIDTAPLSSVDSLINKFDSQLGGQARGRTGRRTRMLPPEQRKRSKSLDSRLPRDTFEERERQSTNHWTSSTKYDNHVGTSKQPAQSQNLSPLSGFSRSRQTQDWVLQSFEEPRRSAQDPTMLQFKSTPDLLRDQQEAAPPGSVDHMKATIYGILREGSSESETSVRRKVSLVLEKMQPLVMVSSGSTKAVAGQGELTRKVEELQRKLDEEVKKRQKLEPSQVGLERQLEEKTEECSRLQELLERRKGEAQQSNKELQNMKRLLDQGEDLRHGLETQVMELQNKLKHVQGPEPAKEVLLKDLLETRELLEEVLEGKQRVEEQLRLRERELTALKGALKEEVASRDQEVEHVRQQYQRDTEQLRRSMQDATQDHAVLEAERQKMSALVRGLQRELEETSEETGHWQSMFQKNKEDLRATKQELLQLRMEKEEMEEELGEKIEVLQRELEQARASAGDTRQVEVLKKELLRTQEELKELQAERQSQEVAGRHRDRELEKQLAVLRVEADRGRELEEQNLQLQKTLQQLRQDCEEASKAKMVAEAEATVLGQRRAAVETTLRETQEENDEFRRRILGLEQQLKETRGLVDGGEAVEARLRDKLQRLEAEKQQLEEALNASQEEEGSLAAAKRALEARLEEAQRGLARLGQEQQTLNRALEEEGKQREVLRRGKAELEEQKRLLDRTVDRLNKELEKIGEDSKQALQQLQAQLEDYKEKARREVADAQRQAKDWASEAEKTSGGLSRLQDEIQRLRQALQASQAERDTARLDKELLAQRLQGLEQEAENKKRSQDDRARQLKGLEEKVSRLETELDEEKNTVELLTDRVNRGRDQVDQLRTELMQERSARQDLECDKISLERQNKDLKTRLASSEGFQKPSASLSQLESQNQLLQERLQAEEREKTVLQSTNRKLERKVKELSIQIEDERQHVNDQKDQLSLRVKALKRQVDEAEEEIERLDGLRKKAQREVEEQHEVNEQLQARIKSLEKDSWRKASRSAAESALKNEGLSSDEEFDSVYDPSSIASLLTESNLQTSSC |
| binds | Coiled-coil domain-containing protein 146 (protein, UniProt Q8IYE0-1 1-955) MEDSSTDTEKEEEEEKDEKDQEPIYAIVPTINIQDERFVDLSETPAFIFLHELHAMGKLPGTRMAALKAKYTLLHDAVMSTQESEVQLLQNAKRFTEQIQQQQFHLQQADNFPEAFSTEVSKMREQLLKYQNEYNAVKEREFHNQYRLNSLKEEKIIIVKEFEKITKPGEMEKKMKILRESTEELRKEIMQKKLEIKNLREDLASKQKQLLKEQKELEELLGHQVVLKDEVAHHQTIPVQIGKEIEKITRKKVEMEKKKIVLEQEVKTLNDSLKKVENKVSAIVDEKENVIKEVEGKRALLEIKEREHNQLVKLLELARENEATSLTERGILDLNLRNSLIDKQNYHDELSRKQREKERDFRNLRKMELLLKVSWDALRQTQALHQRLLLEMEAIPKDDSTLSERRRELHKEVEVAKRNLAQQKIISEMESKLVEQQLAEENKLLKEQENMKELVVNLLRMTQIKIDEKEQKSKDFLKAQQKYTNIVKEMKAKDLEIRIHKKKKCEIYRRLREFAKLYDTIRNERNKFVNLLHKAHQKVNEIKERHKMSLNELEILRNSAVSQERKLQNSMLKHANNVTIRESMQNDVRKIVSKLQEMKEKKEAQLNNIDRLANTITMIEEEMVQLRKRYEKAVQHRNESGVQLIEREEEICIFYEKINIQEKMKLNGEIEIHLLEEKIQFLKMKIAEKQRQICVTQKLLPAKRSLDADLAVLQIQFSQCTDRIKDLEKQFVKPDGENRARFLPGKDLTEKEMIQKLDKLELQLAKKEEKLLEKDFIYEQVSRLTDRLCSKTQGCKQDTLLLAKKMNGYQRRIKNATEKMMALVAELSMKQALTIELQKEVREKEDFIFTCNSRIEKGLPLNKEIEKEWLKVLRDEEMHALAIAEKSQEFLEADNRQLPNGVYTTAEQRPNAYIPEADATLPLPKPYGALAPFKPSEPGANMRHIRKPVIKPVEI |
| binds | Transmembrane protein 43 (protein, UniProt Q9BTV4 1-400) MAANYSSTSTRREHVKVKTSSQPGFLERLSETSGGMFVGLMAFLLSFYLIFTNEGRALKTATSLAEGLSLVVSPDSIHSVAPENEGRLVHIIGALRTSKLLSDPNYGVHLPAVKLRRHVEMYQWVETEESREYTEDGQVKKETRYSYNTEWRSEIINSKNFDREIGHKNPSAMAVESFMATAPFVQIGRFFLSSGLIDKVDNFKSLSLSKLEDPHVDIIRRGDFFYHSENPKYPEVGDLRVSFSYAGLSGDDPDLGPAHVVTVIARQRGDQLVPFSTKSGDTLLLLHHGDFSAEEVFHRELRSNSMKTWGLRAAGWMAMFMGLNLMTRILYTLVDWFPVFRDLVNIGLKAFAFCVATSLTLLTVAAGWLFYRPLWALLIAGLALVPILVARTRVPAKKLE |

— article PMC6733923
